In US20070072904A1, “PPAR active compounds” (priority 2005, published 2007):
pEC50: −log10 of the molar value. Some of these results come from one statement about several compounds together.

Tested on: PPARα, PPARγ and PPARδ
Assay: PPAR activity assays: biochemical assay of Example 9 or cell based assay of Example 10, at least one of the PPARs
Settings: read-out: EC50 in at least one of PPARα, PPARγ and PPARδ activity assays; either biochemical assay of Example 9 or cell based assay of Example 10; at least one of the PPARs

Row | Structure (SMILES) | pEC50
1 | CCOc1ccc2c(c1)c(CCC(=O)O)cn2S(=O)(=O)c1ccc(-c2ccc(OCc3ccccc3)cc2)s1 [Compound P-0491, 3-{1-[5-(4-Benzyloxy-phenyl)-thiophene-2-sulfonyl]-5-ethoxy-1H-indol-3-yl}-propionic acid] | ≥ 6.00
2 | O=C(O)CCc1cn(S(=O)(=O)c2ccc(Oc3ccc(Cl)c(Cl)c3)cc2)c2cc3c(cc12)OCO3 [Compound P-0223, 3-{5-[4-(3,4-Dicholoro-phenoxy)-benzenesulfonyl]-5H-[1,3]dioxolo[4,5-f]indol-7-yl}-propionic acid] | ≥ 6.00
3 | CCOc1ccc2c(c1)c(CCC(=O)O)cn2S(=O)(=O)c1sc(C)cc1-c1ccc(OC)cc1 [Compound P-0541, 3-{5-Ethoxy-1-[3-(4-methoxy-phenyl)-5-methyl-thiophene-2-sulfonyl]-1H-indol-3-yl}-propionic acid] | ≥ 6.00
4 | O=C(O)CCc1cn(S(=O)(=O)c2ccc(-c3ccc(N4CCOCC4)cc3)s2)c2ccc(Cl)cc12 [Compound P-0514, 3-{5-Chloro-1-[5-(4-morpholin-4-yl-phenyl)-thiophene-2-sulfonyl]-1H-indol-3-yl}propionic acid] | ≥ 6.00
5 | O=C(O)CCc1cn(S(=O)(=O)c2ccc(-c3ccc(OCc4ccccc4)cc3)s2)c2ccc(Cl)cc12 [Compound P-0492, 3-{1-[5-(4-Benzyloxy-phenyl)-thiophene-2-sulfonyl]-5-chloro-1H-indol-3-yl}-propionic acid] | ≥ 6.00
6 | O=C(O)CCc1cn(S(=O)(=O)c2ccc(-c3ccc(Cl)cc3)s2)c2ccc(Cl)cc12 [Compound P-0401, 3-{5-Chloro-1-[5-(4-chloro-phenyl)-thiophene-2-sulfonyl]-1H-indol-3-yl}-propionic acid] | ≥ 6.00
7 | CC(C)Oc1ccc2c(c1)c(CCC(=O)O)cn2S(=O)(=O)c1ccc(-c2ccccn2)s1 [Compound P-0324, 3-[5-Isopropoxy-1-(5-pyridin-2-yl-thiophene-2-sulfonyl)-1H-indol-3-yl]-propionic acid] | ≥ 6.00
8 | COc1ccc2c(c1)c(CCC(=O)O)cn2S(=O)(=O)c1ccc(-c2ccc(Cl)c(Cl)c2)s1 [Compound P-0484, 3-{1-[5-(3,4-Dichloro-phenyl)-thiophene-2-sulfonyl]-5-methoxy-1H-indol-3-yl}-propionic acid] | ≥ 6.00
9 | O=C(O)CCc1cn(S(=O)(=O)c2cccnc2)c2cc3c(cc12)OCO3 [Compound P-0363, 3-[5-(Pyridine-3-sulfonyl)-5H-[1,3]-dioxolo[4,5-f]indol-7-yl]-propionic acid] | ≥ 6.00
10 | COc1ccc2c(c1)c(CCC(=O)O)cn2S(=O)(=O)c1ccc(-c2cccc(C(F)(F)F)c2)s1 [Compound P-0019, 3-{5-Methoxy-1-[5-(3-trifluoromethyl-phenyl)-thiophene-2-sulfonyl]-1H-indol-3-yl}-propionic acid] | ≥ 6.00
11 | CC(C)Oc1ccc2c(c1)c(CCC(=O)O)cn2S(=O)(=O)c1ccc(Oc2ccccc2)nc1 [Compound P-0323, 3-[5-Isopropoxy-1-(6-phenoxy-pyridine-3-sulfonyl)-1H-indol-3-yl]-propionic acid] | ≥ 6.00
12 | CCOc1ccc2c(c1)c(CCC(=O)O)cn2S(=O)(=O)c1ccc(-c2ccc(Cl)c(C(F)(F)F)c2)s1 [Compound P-0509, 3-{1-[5-(4-Chloro-3-trifluoromethyl-phenyl)-thiophene-2-sulfonyl]-5-ethoxy-1H-indol-3-yl}-propionic acid] | ≥ 6.00
13 | COc1ccc2c(c1)c(CCC(=O)O)cn2S(=O)(=O)c1cccc(C(=O)c2ccccn2)c1 [Compound P-0150, 3-{5-Methoxy-1-[3-(pyridine-2-carbonyl)-benzenesulfonyl]-1H-indol-3-yl}-propionic acid] | ≥ 6.00
14 | COc1ccc(Oc2ccc(S(=O)(=O)n3cc(CCC(=O)O)c4cc(OC)ccc43)cc2)cc1 [Compound P-0048, 3-{5-Methoxy-1-[4-(4-methoxy-phenoxy)-benzenesulfonyl]-1H-indol-3-yl}-propionic acid] | ≥ 6.00

Results, then the compound that gave them:

Row | pEC50 | Structure (SMILES)
15 | ≥ 6.00 | CCOc1ccc(-c2ccc(S(=O)(=O)n3cc(CCC(=O)O)c4cc(OC)ccc43)s2)cc1 [Compound P-0017, 3 -{1-[5-(4-Ethoxy-phenyl)-thiophene-2-sulfonyl]-5-methoxy-1H-indol-3-yl}-propionic acid]
16 | ≥ 6.00 | CCOc1ccc2c(c1)c(CCC(=O)O)cn2S(=O)(=O)c1sc(C)cc1-c1ccc(CC)cc1 [Compound P-0549, 3-{5-Ethoxy-1-[3-(4-ethyl-phenyl)-5-methyl-thiophene-2-sulfonyl]-1H-indol-3-yl}-propionic acid]
17 | ≥ 6.00 | COc1ccc2c(c1)c(CCC(=O)O)cn2S(=O)(=O)c1ccc(-c2ccc(F)cc2)s1 [Compound P-0430, 3-{1-[5-(4-Fluoro-phenyl)-thiophene-2-sulfonyl]-5-methoxy-1H-indol-3-yl}-propionic acid]
18 | ≥ 6.00 | CCOc1ccc2c(c1)c(CCC(=O)O)cn2S(=O)(=O)c1ccc(-c2ccc(C(F)(F)F)cc2Cl)s1 [Compound P-0516, 3-{1-[5-(2-Chloro-4-trifluoromethyl-phenyl)-thiophene-2-sulfonyl]-5-ethoxy-1H-indol-3-yl}-propionic acid]
19 | ≥ 6.00 | CCOc1ccc2c(c1)c(CCC(=O)O)cn2S(=O)(=O)c1ccc(-c2ccc(F)cc2)s1 [Compound P-0431, 3-{5-Ethoxy-1-[5-(4-fluoro-phenyl)-thiophene-2-sulfonyl]-1H-indol-3-yl}-propionic acid]
20 | ≥ 6.00 | COc1ccc2c(c1)c(CCC(=O)O)cn2S(=O)(=O)c1ccc(F)c(Cl)c1 [Compound P-0149, 3-[1-(3-Chloro-4-fluoro-benzenesulfonyl)-5-methoxy-1H-indol-3-yl]-propionic acid]
21 | ≥ 6.00 | COc1ccc2c(c1)c(CCC(=O)O)cn2S(=O)(=O)c1ccc(Br)cc1 [Compound P-0147, 3-[1-(4-Bromo-benzenesulfonyl)-5-methoxy-1H-indol-3-yl]-propionic acid]
22 | ≥ 6.00 | CCOc1ccc2c(c1)c(CCC(=O)O)cn2S(=O)(=O)c1ccc(-c2cccc(F)c2)s1 [Compound P-0478, 3-{5-Ethoxy-1-[5-(3-fluoro-phenyl)-thiophene-2-sulfonyl]-1H-indol-3-yl}-propionic acid]
23 | ≥ 6.00 | COc1ccc2c(c1)c(CCC(=O)O)cn2S(=O)(=O)c1ccc(-c2cccc(N(C)C)c2)s1 [Compound P-0458, 3-{1-[5-(3-Dimethylamino-phenyl)-thiophene-2-sulfonyl]-5-methoxy-1H-indol-3-yl}-propionic acid]
24 | ≥ 6.00 | CC(C)Oc1ccc2c(c1)c(CCC(=O)O)cn2S(=O)(=O)c1ccc(I)cc1 [Compound P-0335, 3-[1-(4-Iodo-benzenesulfonyl)-5-isopropoxy-1H-indol-3-yl]-propionic acid]
25 | ≥ 6.00 | COc1ccc2c(c1)c(CCC(=O)O)cn2S(=O)(=O)c1cccc(Oc2cc(Cl)cc(Cl)c2)c1 [Compound P-0560, 3-{1-[3-(3,5-Dichloro-phenoxy)-benzenesulfonyl]-5-methoxy-1H-indol-3-yl}-propionic acid]
26 | ≥ 6.00 | CCOc1ccc2c(c1)c(CCC(=O)O)cn2S(=O)(=O)c1ccc(-c2cccc(OC(F)(F)F)c2)s1 [Compound P-0481, 3-{5-Ethoxy-1-[5-(3-trifluoromethoxy-phenyl)-thiophene-2-sulfonyl]-1H-indol-3-yl}-propionic acid]
